Laboratory results reported in article PMC1845162.
These are yes or no findings as the source states them, for the method shown. Binding seen in cells or lysates may run through a third protein. Sequences can lack the tags named with a protein.

Molecular target: T1, GFP-PKB (pEGFP-HA-Akt, murine AKT1) (mouse), P31750
T1 chain: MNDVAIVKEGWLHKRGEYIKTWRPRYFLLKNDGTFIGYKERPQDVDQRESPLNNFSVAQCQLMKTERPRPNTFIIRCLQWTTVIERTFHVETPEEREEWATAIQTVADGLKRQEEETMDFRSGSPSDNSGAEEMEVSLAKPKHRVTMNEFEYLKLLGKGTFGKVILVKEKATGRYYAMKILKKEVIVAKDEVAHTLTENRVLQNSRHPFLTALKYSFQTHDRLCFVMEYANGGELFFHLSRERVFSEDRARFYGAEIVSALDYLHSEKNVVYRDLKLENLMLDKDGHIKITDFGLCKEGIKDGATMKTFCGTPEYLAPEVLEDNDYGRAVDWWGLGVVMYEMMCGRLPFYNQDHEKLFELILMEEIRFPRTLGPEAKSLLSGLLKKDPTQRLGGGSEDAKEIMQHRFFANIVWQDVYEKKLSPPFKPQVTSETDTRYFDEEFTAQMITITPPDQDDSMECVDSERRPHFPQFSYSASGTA
Assay: FRET or BRET; FRET detected by two-photon time domain FLIM (decrease of EGFP donor lifetime with mRFP acceptor) in cotransfected NIH3T3 cells fixed in 4% paraformaldehyde; basal, 5 min PDGF, or 20 min LY294002 pretreatment before PDGF; cytoplasm and plasma membrane pixels separated
Settings: remark: other sources report otherwise

binding: no binding
B1: RFP-PKB (monomeric RFP fused to the N terminus of HA-PKBalpha, murine AKT1), P31750 1-480 (enzyme)
chain: T1 chain
